Experimental findings from publication PMC3770081 are described below.

Protein sequences, listed by entry. Tags and fused reporters are not part of them.
UniProt P46002: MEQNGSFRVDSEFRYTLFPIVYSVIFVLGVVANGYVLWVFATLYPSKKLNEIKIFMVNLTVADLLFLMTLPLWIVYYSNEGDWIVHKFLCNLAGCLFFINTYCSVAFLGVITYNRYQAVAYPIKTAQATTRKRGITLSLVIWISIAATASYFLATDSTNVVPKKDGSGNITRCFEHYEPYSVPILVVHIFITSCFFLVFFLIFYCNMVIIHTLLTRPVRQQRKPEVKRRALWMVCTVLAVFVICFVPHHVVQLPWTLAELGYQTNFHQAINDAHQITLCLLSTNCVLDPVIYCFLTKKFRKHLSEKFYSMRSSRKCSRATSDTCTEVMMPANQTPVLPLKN
UniProt P29067: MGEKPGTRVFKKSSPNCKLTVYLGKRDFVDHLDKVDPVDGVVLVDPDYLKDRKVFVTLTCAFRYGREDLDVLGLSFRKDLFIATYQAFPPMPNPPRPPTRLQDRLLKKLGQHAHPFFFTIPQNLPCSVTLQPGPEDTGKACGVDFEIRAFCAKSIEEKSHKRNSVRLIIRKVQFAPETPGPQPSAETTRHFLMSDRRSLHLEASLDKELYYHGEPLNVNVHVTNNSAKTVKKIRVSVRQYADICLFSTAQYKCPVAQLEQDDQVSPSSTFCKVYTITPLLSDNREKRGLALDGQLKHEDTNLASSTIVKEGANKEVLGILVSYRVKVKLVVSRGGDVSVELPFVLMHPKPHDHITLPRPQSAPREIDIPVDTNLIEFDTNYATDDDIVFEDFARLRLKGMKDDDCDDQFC

These are yes or no findings as the source states them, for the method shown. In cells and extracts the contact can be indirect. Some results given as binding are weak or reduced against the parent protein; the word gives no strength.

The target in the experiment is platelet-activating factor receptor (rat (endogenous in rat aortic VSMCs)) (UniProt P46002). The experiment in a line: co-IP; cleared lysates of rat aortic VSMCs, untreated or treated with 1 nmol/l PAF for 10 min, mixed with 2 μg of PAFR-agarose (anti-PAFR antibody) for 2 h; washed three times with lysis buffer; pellets blotted with anti-ERK, anti-P-ERK, anti-β-arrestin2 or anti-PAFR.

Take β-arrestin2 (from UniProt P29067 1-410): the binding result is on record as “binds”.
